Laboratory results published in article PMC8452302 (CPT: Pharmacometrics & Systems Pharmacology, 2021).

Key:
BCRP = molecular target: T1, BCRP (Homo sapiens, UniProt Q9UNQ0); assay: In vitro BCRP inhibition, HEK293-BCRP membrane vesicles, rosuvastatin probe; format: biochemical
T1 sequence (Q9UNQ0 1-655): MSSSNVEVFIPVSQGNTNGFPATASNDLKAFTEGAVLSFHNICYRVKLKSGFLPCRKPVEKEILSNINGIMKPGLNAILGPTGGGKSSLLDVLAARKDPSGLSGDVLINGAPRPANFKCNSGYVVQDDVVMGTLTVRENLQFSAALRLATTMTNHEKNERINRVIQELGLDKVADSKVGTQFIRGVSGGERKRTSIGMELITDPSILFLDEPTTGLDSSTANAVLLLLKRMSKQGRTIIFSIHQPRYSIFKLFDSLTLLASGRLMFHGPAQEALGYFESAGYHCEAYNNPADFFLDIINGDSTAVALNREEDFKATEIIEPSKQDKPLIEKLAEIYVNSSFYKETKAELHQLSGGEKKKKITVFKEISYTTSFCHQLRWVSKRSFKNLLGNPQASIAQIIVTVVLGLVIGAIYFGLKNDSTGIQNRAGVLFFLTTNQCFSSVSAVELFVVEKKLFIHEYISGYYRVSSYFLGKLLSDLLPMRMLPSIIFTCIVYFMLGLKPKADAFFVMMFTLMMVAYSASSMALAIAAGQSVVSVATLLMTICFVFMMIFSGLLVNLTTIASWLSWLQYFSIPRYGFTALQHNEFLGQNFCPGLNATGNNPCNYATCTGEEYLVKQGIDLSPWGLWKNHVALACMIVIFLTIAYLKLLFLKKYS

OATP1B1 = molecular target: T2, OATP1B1 (Homo sapiens, UniProt Q9Y6L6); assay: Static DDI risk assessment, OATP1B1 R-value; conditions: 1 + Iin,max,u/IC50; metabolite/combination additive; Imax,u for IV
T2 sequence (Q9Y6L6 1-691): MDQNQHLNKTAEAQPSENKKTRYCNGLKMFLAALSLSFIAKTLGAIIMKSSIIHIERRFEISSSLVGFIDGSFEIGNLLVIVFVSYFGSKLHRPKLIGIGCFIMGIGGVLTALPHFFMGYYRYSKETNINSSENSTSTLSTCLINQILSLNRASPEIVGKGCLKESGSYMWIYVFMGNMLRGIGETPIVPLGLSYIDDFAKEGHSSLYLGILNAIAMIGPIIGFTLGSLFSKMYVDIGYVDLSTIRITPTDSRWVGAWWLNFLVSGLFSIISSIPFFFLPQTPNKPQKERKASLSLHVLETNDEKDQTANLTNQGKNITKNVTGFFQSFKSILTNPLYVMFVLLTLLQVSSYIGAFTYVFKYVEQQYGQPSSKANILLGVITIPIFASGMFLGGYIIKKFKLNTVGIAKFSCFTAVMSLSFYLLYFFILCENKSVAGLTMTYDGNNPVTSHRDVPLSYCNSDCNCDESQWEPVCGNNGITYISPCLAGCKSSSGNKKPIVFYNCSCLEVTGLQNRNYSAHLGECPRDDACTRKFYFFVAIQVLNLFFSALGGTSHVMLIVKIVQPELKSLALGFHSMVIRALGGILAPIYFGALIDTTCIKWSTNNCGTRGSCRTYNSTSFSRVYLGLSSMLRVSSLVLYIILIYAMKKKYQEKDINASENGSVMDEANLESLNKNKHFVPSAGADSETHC

OATP1B3 = molecular target: T3, OATP1B3 (Homo sapiens, UniProt Q9NPD5); assay: Static DDI risk assessment, OATP1B3 R-value; conditions: 1 + Iin,max,u/IC50; metabolite/combination additive; Imax,u for IV
T3 sequence (Q9NPD5 1-702): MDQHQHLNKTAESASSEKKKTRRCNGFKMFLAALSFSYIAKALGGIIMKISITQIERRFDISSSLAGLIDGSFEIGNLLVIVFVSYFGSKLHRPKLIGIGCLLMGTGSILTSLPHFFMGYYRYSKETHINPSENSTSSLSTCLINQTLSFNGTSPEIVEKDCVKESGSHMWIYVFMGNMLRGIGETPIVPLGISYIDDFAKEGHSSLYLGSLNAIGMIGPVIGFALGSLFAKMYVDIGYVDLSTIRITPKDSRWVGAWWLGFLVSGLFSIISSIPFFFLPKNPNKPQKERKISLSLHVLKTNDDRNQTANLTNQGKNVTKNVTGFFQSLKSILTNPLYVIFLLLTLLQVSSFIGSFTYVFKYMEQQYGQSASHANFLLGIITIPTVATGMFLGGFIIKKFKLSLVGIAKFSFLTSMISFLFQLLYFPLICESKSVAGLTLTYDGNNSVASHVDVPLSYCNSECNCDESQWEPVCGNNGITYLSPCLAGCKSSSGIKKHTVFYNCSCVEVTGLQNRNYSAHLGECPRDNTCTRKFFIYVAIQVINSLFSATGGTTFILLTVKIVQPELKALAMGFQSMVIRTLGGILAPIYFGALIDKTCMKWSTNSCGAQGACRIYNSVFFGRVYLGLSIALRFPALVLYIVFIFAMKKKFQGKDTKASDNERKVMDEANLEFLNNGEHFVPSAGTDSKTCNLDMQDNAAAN

- IC50 (BCRP): 8.6 µM
- 1B1 R-Value (OATP1B1): 1.01
- 1B3 R-Value (OATP1B3): 1.00
Compound: CC(C)c1c(C(=O)Nc2ccccc2)c(-c2ccccc2)c(-c2ccc(F)cc2)n1CC[C@@H](O)C[C@@H](O)CC(=O)O [Atorvastatin]
